SMILES strings stand for the structures. Counter-ions that a name gives are not always drawn. Over roughly 1,000 compounds, “cFRET/donor change relative to DMSO, normalised to beta-lapachone positive control (supercomplex I-IV assembly)” has its median near 0.18; the lowest 2% begin near -1. The list shows a part of the results.

The subject of the experiment is C2C12 (NDUFB8-AcGFP / COX8A-DsRed-Monomer FRET reporter). The experiment in a line: cFRET/donor change relative to DMSO, normalised to beta-lapachone positive control (supercomplex I-IV assembly) (fraction of beta-lapachone effect); higher = more respiratory supercomplex assembly. The following applies: 40 µM; 24 h. Here is the method:
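Cells were treated with 40 uM compound for 24 h and imaged on an IN Cell Analyzer 6000. Corrected FRET was divided by donor signal (cFRET/donor) and measured in two replicate experiments. The score is (mean cFRET/donor of compound - mean DMSO) / (mean beta-lapachone 40 uM - mean DMSO). Compounds flagged for prominent cell death, abnormal morphology or decreased cell number were excluded.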
Regarding `CCOc1nc2cccc(C(=O)OC(C)OC(=O)OC3CCCCC3)c2n1Cc1ccc(-c2ccccc2-c2nn[nH]n2)cc1` (stereo unspecified) [Candesartan cilexetil], the cFRET/donor change is 0.942.
Then `COc1ccccc1OCCNCC(O)COc1cccc2[nH]c3ccccc3c12` (stereo unspecified) [Carvedilol], with 0.5; and `CCCOC(=O)c1c(-c2ccccc2)nc(CC)c(C(=O)SCC)c1CCC`, with -0.153.
Then `CCN1CCCC1CNC(=O)c1cc(S(=O)(=O)CC)c(N)cc1OC` (stereo unspecified) [Amisulpride], with 0.0234; and `CC(C)(NS(=O)(=O)c1ccc(Oc2ccc(F)cc2)cc1)C(=O)NO`, with 0.196; and `CC(CN1c2ccccc2Sc2ccccc21)N(C)C` (stereo unspecified) [Promethazine hydrochloride], with 0.123.
Next, `N[C@H](C(=O)O)[C@H](Cc1ccccc1)C(=O)O` [L-Beta-threo-benzyl-aspartate]: -0.122; `CCOC(=O)C1=C(C)NC(C)=C(C(=O)OC)C1c1cccc([N+](=O)[O-])c1` (stereo unspecified) [Nitrendipine]: -0.204.
`CN(C)c1nc(N)c(C(=O)NC(=N)N)nc1Cl` [5-(N,N-Dimethyl)amiloride hydrochloride] displayed a cFRET/donor change of 0.174.
Then `C[C@H](O)C(=O)C1=Nc2c(nc(N)[nH]c2=O)NC1` [Sepiapterin], with -0.818.
Next, `COc1ccccc1N1CCN(CCN2C(=O)CC3(CCCC3)CC2=O)CC1` [BMY 7378 dihydrochloride]: 0.18.
Then `CN1Cc2sccc2C(c2ccc(O)c(O)c2)C1` (stereo unspecified), with 0.596; and `CC(C)(C)c1cc(/C=C(\C#N)C(N)=S)cc(C(C)(C)C)c1O` [Tyrphostin AG 879], with -2.01.
`CN(CCCOc1ccc(Cc2ccccc2)cc1)CCC(=O)O`: the cFRET/donor change was 0.52.
Next, `CN(C)CCCC1(c2ccc(F)cc2)OCc2cc(C#N)ccc21` (stereo unspecified) [Citalopram hydrobromide]: 0.337; `Nn1nnc2ccccc21` [1-Aminobenzotriazole]: 0.308.
In the case of `CCCC(CCC)C(=O)O` [Valproic acid sodium], the cFRET/donor change is 0.384.
Then `CC(C)(C)NCC(O)c1ccc(O)c(CO)c1` (stereo unspecified) [Albuterol hemisulfate], with 0.486; and `CCCCCCCC/C=C\CCCCCCCC(=O)O` [Oleic Acid], with 0.074.
Next, `Cn1c(=O)c2c(ncn2C)n(C)c1=O` [Caffeine]: 0.18; `[N-]=[N+]=Nc1ccc(C(=O)CSC[C@H](NC(=O)CC[C@H](N)C(=O)O)C(=O)NCC(=O)O)cc1` [S-(p-Azidophenacyl)glutathione]: -0.174.
Next, `CC(=O)O[C@H]1Cc2ccccc2N(C(N)=O)c2ccccc21`: 0.157; `CC(C)(C)NC(=O)[C@@H]1CN(Cc2cccnc2)CCN1C[C@@H](O)C[C@@H](Cc1ccccc1)C(=O)N[C@H]1c2ccccc2C[C@H]1O` [Indinavir sulfate salt hydrate]: 0.0944.
Molecule `O=C(O[C@@H]1C[C@@H]2C[C@H]3C[C@H](C1)N2CC3=O)c1c[nH]c2ccccc12` [Dolasetron mesylate hydrate] had a cFRET/donor change of 0.115.
Then `CCCCCCCCc1ccc(-c2ccc(C(=O)O)cc2)cc1`, with 0.0523; and `C[N+](C)(C)CCCCCC[N+](C)(C)C` [Hexamethonium bromide], with -0.056.
Next, `C[N+](C)(C)CCCCCC[N+](C)(C)C` [Hexamethonium dichloride]: -0.0282.
Then `CCCCCC[C@@H]([C@@H](C)O)n1cnc2c(N)ncnc21` [erythro-9-(2-Hydroxy-3-nonyl)adenine hydrochloride], with 0.117; and `Cc1cn(C2C=CC(CO)O2)c(=O)[nH]c1=O` (stereo unspecified) [2',3'-didehydro-3'-deoxythymidine], with 0.515; and `O=C(O)c1cccnc1Nc1cccc(C(F)(F)F)c1` [Niflumic acid], with 0.158.
In turn, `Nc1nc2c(c(=O)[nH]1)C[C@@H](CCc1ccc(C(=O)N[C@@H](CCC(=O)O)C(=O)O)cc1)CN2` [Lometrexol hydrate] had a cFRET/donor change of -0.284.
Next, `Cc1ccc(O)c(N=Nc2ccccc2)n1`: 0.375; `CC(C)(C)C(=O)Oc1ccc(S(=O)(=O)Nc2ccccc2C(=O)NCC(=O)O)cc1` [Sivelestat sodium salt hydrate]: -0.0182.
In turn, `CSc1ccc2c(c1)C(N1CCN(C)CC1)Cc1ccccc1S2` (stereo unspecified) [Methiothepin mesylate] returned a cFRET/donor change of 0.408.
Next, `COc1ccc(/C=C/c2nc(NCCCN(C)C)c3ccccc3n2)cc1`: 0.418; `Cc1cc(C(C)(C)C)c(O)c(C)c1CC1=NCCN1` [Oxymetazoline hydrochloride]: 0.136.
Turning to `CN(C)CCCN1c2ccccc2Sc2ccccc21` [Promazine hydrochloride], the cFRET/donor change is -0.115.
Regarding `CC(N)=NCCCC[C@H](N)C(=O)O` [L-N6-(1-Iminoethyl)lysine hydrochloride], the cFRET/donor change is -0.0938.
Next, `CC(C)(C(=O)O)c1ccc(C(O)CCCN2CCC(C(O)(c3ccccc3)c3ccccc3)CC2)cc1` (stereo unspecified) [Fexofenadine hydrochloride]: -0.0711.
Next, `CCN(CC)CCCCNc1ncc2cc(-c3c(Cl)cccc3Cl)c(NC(=O)NC(C)(C)C)nc2n1`: 0.403; `O=C(Nc1ccccc1)c1cc([N+](=O)[O-])ccc1Cl`: -0.257; `C[N+]1(CCCCC[N+]2(C)CCCC2)CCCC1` [Pentolinium di[L(+)-tartrate]]: -0.363.
Then `C[C@]12CCC(=O)C=C1CC[C@@H]1[C@@H]2[C@@H](O)C[C@@]2(C)[C@H]1CC[C@]2(O)C(=O)CO` [Hydrocortisone], with 0.0884.
On to `CNCCCC1c2ccccc2C=Cc2ccccc21` [Protriptyline hydrochloride], for which the cFRET/donor change was 0.409.
As for `Oc1ncnc2[nH]ncc12` [Allopurinol], the cFRET/donor change was -0.0233.
Next, `S=C(S)OC1CC2CC1C1CCCC21` [D-609 potassium]: 0.225; `Cn1cnc2c(NCc3ccccc3)nc(NCCO)nc21` [Olomoucine]: -0.51.
Then `COc1cccc2c1[C@@H]1CN(CCCCn3c(=O)[nH]c4c(sc5ncc(-c6ccccc6)nc54)c3=O)C[C@@H]1CO2` [Fiduxosin hydrochloride], with -1.25.
As to `N=C(N)c1ccc(OCCCCCOc2ccc(C(=N)N)cc2)cc1` [Pentamidine isethionate], the cFRET/donor change worked out at 0.191.
Next, `C=CC1=C(C)c2cc3[nH]c(cc4nc(cc5[nH]c(cc1n2)c(C)c5CCC(=O)O)C(CCC(=O)O)=C4C)c(C)c3C=C` [Protoporphyrin IX disodium]: 3.12.
Then `Nc1ccn([C@@H]2O[C@H](CO)[C@@H](O)C2(F)F)c(=O)n1` [Gemcitabine hydrochloride], with 0.261.
For the molecule `COc1ccccc1N1CCN(CCN(C(=O)C2CCCCC2)c2ccccn2)CC1`, the cFRET/donor change worked out at 0.216.
Next, `Nc1ncnc2c1ncn2[C@@H]1O[C@H](CO)[C@@H](O)[C@H]1O` [Adenosine]: 0.127; `CN1C[C@H](O)[C@@H](O)[C@H](O)[C@H]1CO` [N-Methyl-1-deoxynojirimycin]: 0.389; `C=C1C[C@@]23CC[C@H]4[C@@](C)(CCC[C@@]4(C)C(=O)O)[C@@H]2CC[C@]1(O)C3` [Steviol]: 0.397.
Then `CN(C)CC/C=C1/c2ccccc2Sc2ccc(Cl)cc21` [Chlorprothixene hydrochloride], with 0.39; and `CC(=O)[C@H]1CC[C@H]2[C@@H]3CCC4=CC(=O)CC[C@]4(C)[C@H]3CC[C@]12C` [Progesterone], with 0.445; and `C[C@]12CC[C@@H]3c4ccc(O)cc4CC[C@H]3[C@@H]1CC[C@@H]2O` [beta-Estradiol], with 0.311.
The molecule `CC1=C(C(=O)O)N2C(=O)[C@@H](NC(=O)[C@H](N)C3=CCC=CC3)[C@H]2SC1` [Cephradine] came in with a cFRET/donor change of 0.505.
Next, `CCc1c(C)[nH]c2c1C(=O)C(CN1CCOCC1)CC2` (stereo unspecified) [Molindone hydrochloride]: 0.417.
Then `CN1CCc2cc(Cl)c(O)cc2[C@@H](c2ccccc2)C1`, with 0.549.
Then `Nc1ccc(N2C(=O)c3ccccc3C2=O)c(Cl)c1` [N-(4-Amino-2-chlorophenyl)phthalimide], with -0.0444; and `CNS(=O)(=O)CCc1ccc2[nH]cc(C3CCN(C)CC3)c2c1` [Naratriptan hydrochloride], with 0.347.
In turn, `CC1=C(/C=C/C(C)=C/C=C/C(C)=C/C=C/C=C(C)/C=C/C=C(C)/C=C/C2=C(C)C(=O)[C@@H](O)CC2(C)C)C(C)(C)C[C@H](O)C1=O` [Astaxanthin] registered a cFRET/donor change of -0.0722.
As to `CC(=O)Oc1ccccc1C(=O)O` [Acetylsalicylic acid], the cFRET/donor change was 0.314.
Then `O=C(O)[C@H]1NCCC[C@H]1C(=O)O` (racemic) [(±)-cis-Piperidine-2,3-dicarboxylic acid], with -0.226; and `NC(=O)C1=CN(C2OC(COP(=O)(O)OP(=O)(O)OC[C@H]3O[C@@H](n4cnc5c(N)ncnc54)C(OP(=O)(O)O)[C@H]3O)C(O)C2O)C=CC1` (stereo partly specified) [NADPH tetrasodium], with -0.198; and `CC(O)C(O)[C@H]1CNc2nc(N)[nH]c(=O)c2N1` (stereo partly drawn) [(6R)-5,6,7,8-Tetrahydro-L-biopterin hydrochloride], with 0.491.
Next, `CC1=C(/C=C/C(C)=C/C=C/C(C)=C/C(=O)O)C(C)(C)CCC1` [Retinoic acid]: 0.0818; `OCC1OC(n2cnc3c(NC4CCCCC4)ncnc32)C(O)C1O` (stereo unspecified) [N6-Cyclohexyladenosine]: 0.295.
Next, `N[C@@H](Cc1c[nH]c2ccc(O)cc12)C(=O)O` [5-Hydroxy-L-tryptophan]: 0.0781; `O=C(O)/C=C/c1ccc(O)c(O)c1` [Caffeic Acid]: 0.339; `COc1cc2nc(N(C)CCCNC(=O)C3CCCO3)nc(N)c2cc1OC` (stereo unspecified) [Alfuzosin hydrochloride]: 0.0541.
`CC(=O)O[C@]1(C(C)=O)CC[C@H]2[C@@H]3C=C(Cl)C4=CC(=O)[C@@H]5C[C@@H]5[C@]4(C)[C@H]3CC[C@@]21C` [Cyproterone acetate]: the cFRET/donor change amounted to 0.0328.
Then `N[C@@H]1CONC1=O` [D-Cycloserine], with 0.129; and `O=C(O)COCCN1CCN(C(c2ccccc2)c2ccc(Cl)cc2)CC1` (stereo unspecified) [Cetirizine dihydrochloride], with 0.511.

The values above are taken from the supplement of paper PMC9877034.
